Assay results reported in patent US11062797B2, “Method and system for obtaining and using pharmacokinetic data in drug administration” (Continuous Precision Medicine, priority 2014, dated 2021).
Like-named read-outs stand apart in the source and are kept apart here. Marks after values point to notes of the source that are not given here.

System: patients scheduled for elective esophagogastroduodenoscopy (EGD)
Settings: median (IQR)
Description: In addition to ASA standard monitors, respiratory inductance plethysmography (RIP) (Ambulatory Monitoring Inc, Armonk, N.Y.), SEDLine® patient state index (PSI) (Masimo Corp, Irvine, Calif.) and RAD87 pulse oximeter (Masimo Corp, Irvine, Calif.) were applied. All patients received 50 μg of fentanyl immediately prior to initiation of sedation. […] In the experimental arm, patient age and weight were used by the PRC algorithm to calculate bolus, infusion1, infusion2, and time for transition from infusion1 to infusion2. These numbers were reviewed by an investigator prior to initiation of sedation, and when the patient could tolerate airway placement, the software determined the maintenance infusion to maintain the effect-site concentration at the value existing at that time. Custom software written in Labview 2012 (National Instruments, Austin, Tex.) performed these calculations, transmitted the infusion rates to a Graseby 3400 pump (Marcal Medical, Millersville, Md.), and acquired data from the monitors.
All patients were preoxygenated using a Mapleson circuit at oxygen flows greater than 10 liters per minute. Following placement of the Robertazzi airway, the Mapleson circuit was connected to the airway via the connector from an endotracheal tube and the adjustable pressure limit valve closed, assuring continuous flow of 100% oxygen into the hypopharynx.
In experimental patients, the CRNA could request additional boluses or changes in infusion rates as they saw fit. […] This measure is reported in two ways. The first is termed “adjustment dose”, which is the cumulative absolute value of the difference between the intended trajectory and the actual administration. The second is the “intended ratio”, which is the ratio of the dose delivered on the intended trajectory and the actual administration. These measures are depicted in FIG. 7. In FIG. 7, the dotted line indicates the actual infusion rates, while the solid line indicates the intended trajectory (fixing the infusion rate at 300 μg/kg/min).
Ventilatory depression was assessed from respiratory inductance plethysmography signals. The signals were filtered by ensemble empirical mode decomposition employing 450 realizations and noise scaled to 40% of signal power. The dominant mode was used for the Huang-Hilbert Transform (HHT). Minute ventilation was computed as the product of the respiratory rate times the magnitude of volume change at one second intervals. Baseline ventilation was determined from several breaths prior to initiation of sedation; subsequent measurements were normalized by this baseline value. […]
Effect site estimates were calculated using the Cortinez model employing the nominal values, with an adjoined effect compartment. […]

SMILES: CC(C)c1cccc(C(C)C)c1O [propofol]
- Adjustment Dosing (Control (CRNA dosing)): 24.1 (37.2) mg
- Total Propofol (Control (CRNA dosing)): 295.6 (136.3) mg
- Adjustment Dosing (Experimental (PRC)): 0 (0) # mg
- Total Propofol (Experimental (PRC)): 287.5 (167) NS mg
